These are yes or no findings as the source states them, for the method shown. Sequences can lack the tags named with a protein.
B1: GFP 단일 도메인 항체 11F5 (VHH)
VHH: ESGGGSVQSGGSLRLSCSGVTGSDYCLGWFRQAPGREREGVAASSRYGSTYYGDFVRGRFTISRDSAKNTLILQMNNLQPEDTAMYYCAASRRVGSCSTYERVFAYWGQGTQVTVSS
B2: GFP 단일 도메인 항체 13C2 (VHH)
VHH: GGGGSVQAGGSLRLSCAASGYISDSHGRNCMGWFRQAPGKEREAVARIYSRLGTTYYADSVKGRFTISRDNAKNTLYLQMHSLKPEDTAMYYCAAVGGLCIDKETPTDYPFWGQGTQVTVSS
B3: GFP 단일 도메인 항체 13H2 (VHH)
VHH: ESGGGSVQAGGSLKLSCAASGYISSNCMGWFRQAPGKEREGVASIYRGYGNTYYTDSVKGRFTISQDNAKNTIYLQMNSLKPEDTARYYCAAVNCARWPFDREYNYWGQGTQVTVSS
B4: GFP 단일 도메인 항체 2G2 (VHH)
VHH: EWGGSVQAGGSLRLSCSASGFASSPGCMAWFRQAPGKEREGVAEIATRSGSAYYADSVKGRFTISQDNAKNTLYLQMNSLKPEDTAIYYCAASRLRCTPAADFSRIPAYAMDYWGKGTQVTVSS
B5: GFP 단일 도메인 항체 2G9 (VHH)
VHH: ESGGGSVQAGGSLRLSCVVSRSTYTSNCMGWFRQAPGKEREEVASIYTGGGITYYADSVKGRFTVSQDNAKNTVYLQMNSLKPEDTAMYYCAAGRGSWSCGMGPDEYKYWGQGTQVTVSS
B6: GFP 단일 도메인 항체 3H8 (VHH)
VHH: ESGGGSVQSGGSLRLSCVASGSTDRPAYMAWFRQAPGKEREGVATIYTEFGSQYYADSVKGRFTISQDNAKRTAYLQMNSLKPEDTAMYYCAATTAFRVLGTRKLDAAQYAYWGQGTQVTVSS
B7: GFP 단일 도메인 항체 7C8 (VHH)
VHH: SWGGSVQTGGSLGLSCTTSLDGYSSVCMGWFRQTPGKEREGVATIHRAFGDTYYADSVKGRFTISEDSAKNTVYLRMNSLKPEDTGMYYCAAGRPKSGSAWNCRDAEYVYWGQGTQVTVSS
B8: GFP 단일 도메인 항체 8B9 (VHH)
VHH: ESGGGSVQAGGSLRLSCAASGYTVSRGCMAWFRQVPGKEREGVAAINSGDGTTYYADSVKGRFTISQDNAKNTVYLQMNSLEPEDTSIYYCAASRLRCPWNLVSASWYDFWGQGTQVTVSS
B9: GFP 단일 도메인 항체 8G4 (VHH)
VHH: ESGGGSVQAGGSLRLSCAAPRSTYTSNCMGWFRQAPGKEREEVASIYTGGDITYYADSVKGRFTMSQDNARSTVYLQMNSLKPEDTAMYYCAAGRGSWSCGSGPDEYKYWGQGTQVTVSS
B10: GFP 단일 도메인 항체 9H11 (VHH)
VHH: SGGGSVQSGGSLRLTCAASGRTSSISYMGWFRQSPGKEREGVAFIDRRDSTTYADLVKGRFTISRDNARNTLYLQMNSLKPEDTAMYYCAARIRGYYSRPALSADFDYWGQGTQVTVSS
B11: GFP 단일 도메인 항체 10A8 (VHH)
VHH: SLGGGSVQAGGSLRLSCAASGFAMSTYCMAWFRQAPGKEREGVATLSPLGILSHYADSVKGRFTVSRDNAKNTLSLQMNSLIPEDTAMYYCAAMPRPDGGAHGCVSWLAYNFWGQGTQVTVSS

The binders below were run against RFP (Red Fluorescent Protein) (assay: phage ELISA, RFP coated on the plate, anti-M13-HRP).
B1 was tested, and the binding was “no binding”.
With B2 the binding was “no binding”.
In the case of B3, the binding is reported as “no binding”.
B4 was tested, and the binding was “no binding”.
B5 was tested, and the binding was “no binding”.
In the case of B6, the binding is reported as “no binding”.
With B7 the binding was “no binding”.
With B8 the binding was “no binding”.
In the case of B9, the binding is reported as “no binding”.
For B10, the binding was “no binding”.
In the case of B11, the binding is reported as “no binding”.

From patent KR20120049206A
